The record followed here is publication PMC5505151, “A proteomic analysis of LRRK2 binding partners reveals interactions with multiple signaling components of the WNT/PCP pathway” (Molecular Neurodegeneration, 2017).

Sequences of proteins named here, by UniProt entry; tags and fusion partners are left off.
UniProt Q5S007: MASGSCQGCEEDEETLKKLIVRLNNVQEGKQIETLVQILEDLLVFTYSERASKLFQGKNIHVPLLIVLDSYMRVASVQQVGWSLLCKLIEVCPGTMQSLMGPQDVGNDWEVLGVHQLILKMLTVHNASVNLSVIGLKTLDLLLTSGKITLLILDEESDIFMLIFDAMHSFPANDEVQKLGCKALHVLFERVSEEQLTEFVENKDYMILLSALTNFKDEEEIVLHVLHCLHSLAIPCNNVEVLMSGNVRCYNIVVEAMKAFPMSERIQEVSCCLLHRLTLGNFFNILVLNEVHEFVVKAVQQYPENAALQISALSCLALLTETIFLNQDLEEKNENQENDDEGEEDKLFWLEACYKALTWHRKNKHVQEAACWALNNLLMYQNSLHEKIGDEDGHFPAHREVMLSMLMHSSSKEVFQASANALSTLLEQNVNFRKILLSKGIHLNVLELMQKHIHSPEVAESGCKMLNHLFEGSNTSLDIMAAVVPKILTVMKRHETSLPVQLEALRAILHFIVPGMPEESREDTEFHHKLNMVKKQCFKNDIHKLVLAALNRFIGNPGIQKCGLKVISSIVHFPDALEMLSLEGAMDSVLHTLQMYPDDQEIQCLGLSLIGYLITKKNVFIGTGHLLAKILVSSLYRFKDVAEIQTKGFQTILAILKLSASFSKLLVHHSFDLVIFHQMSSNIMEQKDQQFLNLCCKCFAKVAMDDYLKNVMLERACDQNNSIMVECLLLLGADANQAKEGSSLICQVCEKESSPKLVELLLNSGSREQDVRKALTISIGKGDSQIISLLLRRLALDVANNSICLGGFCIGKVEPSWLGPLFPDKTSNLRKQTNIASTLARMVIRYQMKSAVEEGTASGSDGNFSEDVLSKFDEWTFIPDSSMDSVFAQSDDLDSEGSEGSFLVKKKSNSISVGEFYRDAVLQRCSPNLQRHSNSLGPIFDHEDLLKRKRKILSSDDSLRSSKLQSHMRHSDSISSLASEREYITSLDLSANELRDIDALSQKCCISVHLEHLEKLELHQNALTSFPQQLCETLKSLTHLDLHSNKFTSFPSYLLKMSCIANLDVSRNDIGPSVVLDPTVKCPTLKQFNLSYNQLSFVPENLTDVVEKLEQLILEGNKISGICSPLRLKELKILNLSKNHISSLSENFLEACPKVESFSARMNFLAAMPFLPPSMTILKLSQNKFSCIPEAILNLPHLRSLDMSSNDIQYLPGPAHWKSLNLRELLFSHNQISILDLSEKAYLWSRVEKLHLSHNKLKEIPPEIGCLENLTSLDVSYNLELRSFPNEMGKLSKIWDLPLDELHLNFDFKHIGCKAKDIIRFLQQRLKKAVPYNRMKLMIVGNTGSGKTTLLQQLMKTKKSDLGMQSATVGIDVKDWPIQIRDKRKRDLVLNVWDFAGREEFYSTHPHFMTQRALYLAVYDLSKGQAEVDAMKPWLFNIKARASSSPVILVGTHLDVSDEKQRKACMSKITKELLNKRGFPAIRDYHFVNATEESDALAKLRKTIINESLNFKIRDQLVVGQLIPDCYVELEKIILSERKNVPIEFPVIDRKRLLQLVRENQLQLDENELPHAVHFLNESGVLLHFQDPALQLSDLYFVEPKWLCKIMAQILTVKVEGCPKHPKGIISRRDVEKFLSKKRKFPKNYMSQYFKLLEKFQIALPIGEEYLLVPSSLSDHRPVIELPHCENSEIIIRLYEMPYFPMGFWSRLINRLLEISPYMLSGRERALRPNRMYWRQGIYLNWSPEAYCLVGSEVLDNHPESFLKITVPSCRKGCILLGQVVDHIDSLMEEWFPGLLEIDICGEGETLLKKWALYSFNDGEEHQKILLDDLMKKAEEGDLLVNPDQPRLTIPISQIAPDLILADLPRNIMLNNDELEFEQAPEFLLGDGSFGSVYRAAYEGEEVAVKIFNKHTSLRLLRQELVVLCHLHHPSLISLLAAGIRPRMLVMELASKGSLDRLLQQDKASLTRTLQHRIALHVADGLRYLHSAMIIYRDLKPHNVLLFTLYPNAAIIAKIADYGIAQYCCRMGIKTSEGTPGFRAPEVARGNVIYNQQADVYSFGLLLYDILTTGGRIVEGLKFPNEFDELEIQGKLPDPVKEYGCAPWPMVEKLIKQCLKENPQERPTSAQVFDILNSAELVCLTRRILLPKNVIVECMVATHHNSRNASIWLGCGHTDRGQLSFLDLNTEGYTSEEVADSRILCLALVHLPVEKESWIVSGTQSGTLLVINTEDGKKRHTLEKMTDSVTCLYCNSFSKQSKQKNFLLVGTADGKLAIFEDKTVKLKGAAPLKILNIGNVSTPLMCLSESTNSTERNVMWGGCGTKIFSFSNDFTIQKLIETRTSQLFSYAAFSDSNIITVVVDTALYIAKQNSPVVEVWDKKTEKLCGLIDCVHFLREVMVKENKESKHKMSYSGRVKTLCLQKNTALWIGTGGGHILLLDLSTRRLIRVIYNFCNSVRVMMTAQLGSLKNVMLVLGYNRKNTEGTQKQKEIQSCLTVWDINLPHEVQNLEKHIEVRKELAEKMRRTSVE

B1: BEN domain-containing protein 3 (endogenous, HEK293T) (protein, UniProt Q5T5X7 1-828)
chain: MNSTEFTEDVEEVLKSITVKVETEAEDAALDCSVNSRTSEKHSVDSVLTALQDSSKRKQLVSDGLLDSVPGVKRRRLIPEALLAGMRNRENSSPCQGNGEQAGRGRSLGNVWPGEEEPCNDATTPSYKKPLYGISHKIMEKKNPPSGDLLNVYELFEKANASNSPSSLRLLNEPQKRDCGSTGAGTDNDPNIYFLIQKMFYMLNTLTSNMSQLHSKVDLLSLEVSRIKKQVSPTEMVAKFQPPPEYQLTAAELKQIVDQSLSGGDLACRLLVQLFPELFSDVDFSRGCSACGFAAKRKLESLHLQLIRNYVEVYYPSVKDTAVWQAECLPQLNDFFSRFWAQREMEDSQPSGQVASFFEAEQVDPGHFLDNKDQEEALSLDRSSTIASDHVVDTQDLTEFLDEASSPGEFAVFLLHRLFPELFDHRKLGEQYSCYGDGGKQELDPQRLQIIRNYTEIYFPDMQEEEAWLQQCAQRINDELEGLGLDAGSEGDPPRDDCYDSSSLPDDISVVKVEDSFEGERPGRRSKKIWLVPIDFDKLEIPQPDFEVPGADCLLSKEQLRSIYESSLSIGNFASRLLVHLFPELFTHENLRKQYNCSGSLGKKQLDPSRIKLIRHYVQLLYPRAKNDRVWTLEFVGKLDERCRRRDTEQRRSYQQQRKVHVPGPECRDLTSYAINPERFREEFEGPPLPPERSSKDFCKIPLDELVVPSPDFPVPSPYLLSDKEVREIVQQSLSVGNFAARLLVRLFPELFTAENLRLQYNHSGACNKKQLDPTRLRLIRHYVEAVYPVEKMEEVWHYECIPSIDERCRRPNRKKCDILKKAKKVEK
B2: FLOTILLIN-2 (endogenous, HEK293T) (protein, UniProt Q14254 1-428)
chain: MGNCHTVGPNEALVVSGGCCGSDYKQYVFGGWAWAWWCISDTQRISLEIMTLQPRCEDVETAEGVALTVTGVAQVKIMTEKELLAVACEQFLGKNVQDIKNVVLQTLEGHLRSILGTLTVEQIYQDRDQFAKLVREVAAPDVGRMGIEILSFTIKDVYDKVDYLSSLGKTQTAVVQRDADIGVAEAERDAGIREAECKKEMLDVKFMADTKIADSKRAFELQKSAFSEEVNIKTAEAQLAYELQGAREQQKIRQEEIEIEVVQRKKQIAVEAQEILRTDKELIATVRRPAEAEAHRIQQIAEGEKVKQVLLAQAEAEKIRKIGEAEAAVIEAMGKAEAERMKLKAEAYQKYGDAAKMALVLEALPQIAAKIAAPLTKVDEIVVLSGDNSKVTSEVNRLLAELPASVHALTGVDLSKIPLIKKATGVQV
B3: C-Jun-amino-terminal kinase-interacting protein 4 (protein, UniProt O60271 1-1321)
chain: MELEDGVVYQEEPGGSGAVMSERVSGLAGSIYREFERLIGRYDEEVVKELMPLVVAVLENLDSVFAQDQEHQVELELLRDDNEQLITQYEREKALRKHAEEKFIEFEDSQEQEKKDLQTRVESLESQTRQLELKAKNYADQISRLEEREAELKKEYNALHQRHTEMIHNYMEHLERTKLHQLSGSDQLESTAHSRIRKERPISLGIFPLPAGDGLLTPDAQKGGETPGSEQWKFQELSQPRSHTSLKVSNSPEPQKAVEQEDELSDVSQGGSKATTPASTANSDVATIPTDTPLKEENEGFVKVTDAPNKSEISKHIEVQVAQETRNVSTGSAENEEKSEVQAIIESTPELDMDKDLSGYKGSSTPTKGIENKAFDRNTESLFEELSSAGSGLIGDVDEGADLLGMGREVENLILENTQLLETKNALNIVKNDLIAKVDELTCEKDVLQGELEAVKQAKLKLEEKNRELEEELRKARAEAEDARQKAKDDDDSDIPTAQRKRFTRVEMARVLMERNQYKERLMELQEAVRWTEMIRASRENPAMQEKKRSSIWQFFSRLFSSSSNTTKKPEPPVNLKYNAPTSHVTPSVKKRSSTLSQLPGDKSKAFDFLSEETEASLASRREQKREQYRQVKAHVQKEDGRVQAFGWSLPQKYKQVTNGQGENKMKNLPVPVYLRPLDEKDTSMKLWCAVGVNLSGGKTRDGGSVVGASVFYKDVAGLDTEGSKQRSASQSSLDKLDQELKEQQKELKNQEELSSLVWICTSTHSATKVLIIDAVQPGNILDSFTVCNSHVLCIASVPGARETDYPAGEDLSESGQVDKASLCGSMTSNSSAETDSLLGGITVVGCSAEGVTGAATSPSTNGASPVMDKPPEMEAENSEVDENVPTAEEATEATEGNAGSAEDTVDISQTGVYTEHVFTDPLGVQIPEDLSPVYQSSNDSDAYKDQISVLPNEQDLVREEAQKMSSLLPTMWLGAQNGCLYVHSSVAQWRKCLHSIKLKDSILSIVHVKGIVLVALADGTLAIFHRGVDGQWDLSNYHLLDLGRPHHSIRCMTVVHDKVWCGYRNKIYVVQPKAMKIEKSFDAHPRKESQVRQLAWVGDGVWVSIRLDSTLRLYHAHTYQHLQDVDIEPYVSKMLGTGKLGFSFVRITALMVSCNRLWVGTGNGVIISIPLTETNKTSGVPGNRPGSVIRVYGDENSDKVTPGTFIPYCSMAHAQLCFHGHRDAVKFFVAVPGQVISPQSSSSGTDLTGDKAGPSAQEPGSQTPLKSMLVISGGEGYIDFRMGDEGGESELLGEDLPLEPSVTKAERSHLIVWQVMYGNE
B4: FLOTILLIN-1 (endogenous, HEK293T) (protein, UniProt O75955 1-427)
chain: MFFTCGPNEAMVVSGFCRSPPVMVAGGRVFVLPCIQQIQRISLNTLTLNVKSEKVYTRHGVPISVTGIAQVKIQGQNKEMLAAACQMFLGKTEAEIAHIALETLEGHQRAIMAHMTVEEIYKDRQKFSEQVFKVASSDLVNMGISVVSYTLKDIHDDQDYLHSLGKARTAQVQKDARIGEAEAKRDAGIREAKAKQEKVSAQYLSEIEMAKAQRDYELKKAAYDIEVNTRRAQADLAYQLQVAKTKQQIEEQRVQVQVVERAQQVAVQEQEIARREKELEARVRKPAEAERYKLERLAEAEKSQLIMQAEAEAASVRMRGEAEAFAIGARARAEAEQMAKKAEAFQLYQEAAQLDMLLEKLPQVAEEISGPLTSANKITLVSSGSGTMGAAKVTGEVLDILTRLPESVERLTGVSISQVNHKPLRTA
B5: PDZ domain-containing protein GIPC1 (endogenous, HEK293T) (protein, UniProt O14908 1-333)
chain: MPLGLGRRKKAPPLVENEEAEPGRGGLGVGEPGPLGGGGSGGPQMGLPPPPPALRPRLVFHTQLAHGSPTGRIEGFTNVKELYGKIAEAFRLPTAEVMFCTLNTHKVDMDKLLGGQIGLEDFIFAHVKGQRKEVEVFKSEDALGLTITDNGAGYAFIKRIKEGSVIDHIHLISVGDMIEAINGQSLLGCRHYEVARLLKELPRGRTFTLKLTEPRKAFDMISQRSAGGRPGSGPQLGTGRGTLRLRSRGPATVEDLPSAFEEKAIEKVDDLLESYMGIRDTELAATMVELGKDKRNPDELAEALDERLGDFAFPDEFVFDVWGAIGDAKVGRY

These are yes or no findings as the source states them, for the method shown. Binding seen in cells or lysates may run through a third protein. These calls come from enrichment with a bait or labelling near it, and not all partners need be listed.

The assay concerns the target 2xmyc-Lrrk2-WT (Leucine-rich repeat kinase 2, wild type) (human) (UniProt Q5S007). Briefly: affinity purification with mass spectrometry; HEK293T transiently transfected with human 2xmyc-Lrrk2-WT, lysed in NP40 buffer 24 h post transfection; pull-down with antibodies against C-MYC; SDS-PAGE, silver staining, in-gel tryptic digestion, LC-MS/MS; only proteins absent in the IgG control counted.
For B1, the binding entry was “binds”.
Consider B2, for which the binding entry is “binds”.
For B3, the binding result is given as “binds”.
In the case of B4, the binding result is listed as “binds”.
For B5 the value was “binds”.
